We go through 3 molecules from publication PMC3592837.

Chains of the proteins cited; added tags and fusions are not shown. Residues count along the entry.
UniProt Q62230, residues 20-1695: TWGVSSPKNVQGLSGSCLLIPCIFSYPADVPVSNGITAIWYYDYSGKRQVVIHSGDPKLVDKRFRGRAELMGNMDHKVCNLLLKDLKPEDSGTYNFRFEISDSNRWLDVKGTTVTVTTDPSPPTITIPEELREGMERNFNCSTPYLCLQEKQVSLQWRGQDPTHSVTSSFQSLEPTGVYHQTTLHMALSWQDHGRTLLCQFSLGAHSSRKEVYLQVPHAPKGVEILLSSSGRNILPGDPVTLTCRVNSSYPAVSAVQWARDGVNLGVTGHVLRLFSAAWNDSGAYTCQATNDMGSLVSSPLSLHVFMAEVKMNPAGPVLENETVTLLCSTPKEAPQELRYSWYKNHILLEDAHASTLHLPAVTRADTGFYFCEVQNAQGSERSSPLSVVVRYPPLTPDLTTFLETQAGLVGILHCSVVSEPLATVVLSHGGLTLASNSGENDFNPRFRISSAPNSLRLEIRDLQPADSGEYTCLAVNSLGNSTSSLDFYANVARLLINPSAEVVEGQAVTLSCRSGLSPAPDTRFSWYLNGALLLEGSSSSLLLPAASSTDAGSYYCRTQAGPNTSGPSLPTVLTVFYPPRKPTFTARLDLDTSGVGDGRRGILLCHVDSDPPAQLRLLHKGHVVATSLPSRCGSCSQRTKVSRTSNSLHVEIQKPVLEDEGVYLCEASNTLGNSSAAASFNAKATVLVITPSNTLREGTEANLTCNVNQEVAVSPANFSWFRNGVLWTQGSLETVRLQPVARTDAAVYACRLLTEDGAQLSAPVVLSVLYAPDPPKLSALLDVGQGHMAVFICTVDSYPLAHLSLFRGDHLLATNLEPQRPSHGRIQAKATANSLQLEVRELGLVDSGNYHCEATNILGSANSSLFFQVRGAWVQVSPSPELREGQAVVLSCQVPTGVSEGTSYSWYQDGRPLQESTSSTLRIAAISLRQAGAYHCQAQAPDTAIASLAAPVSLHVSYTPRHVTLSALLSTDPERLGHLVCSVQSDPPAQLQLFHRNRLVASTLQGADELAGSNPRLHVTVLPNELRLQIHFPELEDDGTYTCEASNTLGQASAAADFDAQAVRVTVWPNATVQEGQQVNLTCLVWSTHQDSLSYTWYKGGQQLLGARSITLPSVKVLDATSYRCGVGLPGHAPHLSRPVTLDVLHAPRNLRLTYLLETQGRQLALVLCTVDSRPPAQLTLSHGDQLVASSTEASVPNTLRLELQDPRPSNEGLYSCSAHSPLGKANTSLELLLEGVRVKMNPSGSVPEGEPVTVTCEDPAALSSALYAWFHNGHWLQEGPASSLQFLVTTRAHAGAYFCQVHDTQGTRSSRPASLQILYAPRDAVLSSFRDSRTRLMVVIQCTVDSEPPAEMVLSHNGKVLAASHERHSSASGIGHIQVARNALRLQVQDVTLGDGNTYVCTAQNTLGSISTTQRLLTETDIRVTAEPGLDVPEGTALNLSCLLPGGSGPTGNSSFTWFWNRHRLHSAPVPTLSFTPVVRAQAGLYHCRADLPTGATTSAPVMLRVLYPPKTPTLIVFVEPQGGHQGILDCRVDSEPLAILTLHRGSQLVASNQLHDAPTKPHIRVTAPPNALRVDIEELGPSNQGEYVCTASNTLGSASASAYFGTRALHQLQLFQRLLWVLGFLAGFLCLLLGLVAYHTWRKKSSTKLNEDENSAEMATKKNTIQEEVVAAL

Assay [1] concerns the target T1, SR-BI (mouse (endogenous in bone marrow-derived macrophages)) (UniProt Q61009).
T1 sequence: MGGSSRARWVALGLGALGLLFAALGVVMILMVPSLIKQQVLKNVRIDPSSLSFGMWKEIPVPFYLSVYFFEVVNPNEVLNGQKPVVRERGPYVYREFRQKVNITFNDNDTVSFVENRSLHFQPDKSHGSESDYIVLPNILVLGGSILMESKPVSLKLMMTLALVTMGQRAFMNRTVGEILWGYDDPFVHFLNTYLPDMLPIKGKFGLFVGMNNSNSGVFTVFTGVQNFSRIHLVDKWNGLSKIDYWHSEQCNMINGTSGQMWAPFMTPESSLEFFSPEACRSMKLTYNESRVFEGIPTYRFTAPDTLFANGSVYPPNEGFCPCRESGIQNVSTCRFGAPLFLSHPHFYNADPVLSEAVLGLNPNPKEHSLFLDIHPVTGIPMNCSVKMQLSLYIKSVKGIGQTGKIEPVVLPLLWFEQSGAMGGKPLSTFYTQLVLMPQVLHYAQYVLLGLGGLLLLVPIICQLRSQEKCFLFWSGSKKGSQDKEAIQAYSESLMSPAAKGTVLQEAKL
As to the kind of experiment: co-IP; cell membrane protein (0.5 mg) of mouse BMMs stimulated with oxLDL (100 µg/ml), PMA (20 ng/ml) or LPS (0.1 µg/ml) for 48 h; IP with 3 µg rat anti-Siglec-1 (3D6.112) or rabbit polyclonal to SR-BI overnight at 4°C, Pierce Classic IP Kit; immunoblot. On the technique in general: In western blotting, separated proteins are transferred to a membrane and probed.

Assay [2] addresses Siglec-1 (mouse (endogenous in bone marrow-derived macrophages)) (UniProt Q62230). The assay is described as above.
The target is the same in assay [3]. As to the kind of experiment: co-IP; as a1, but BMMs not stimulated (culture medium for 48 h).

These are yes or no findings as the source states them, for the method shown. In cells and extracts the contact can be indirect. Some entries that bind do so weakly or less than the wild type.

As to “Siglec-1 (from UniProt Q62230 20-1695) (receptor)”, the binding result in assay [1] is recorded as “binds”.

B1: SR-BI (receptor, UniProt Q61009 1-509)
chain: T1 sequence
Regarding B1, the binding entry in assay [2] was “binds”; in assay [3], “binds weakly”.

B2: caveolin-1 (protein, UniProt P49817 1-178)
chain: MSGGKYVDSEGHLYTVPIREQGNIYKPNNKAMADEVTEKQVYDAHTKEIDLVNRDPKHLNDDVVKIDFEDVIAEPEGTHSFDGIWKASFTTFTVTKYWFYRLLSTIFGIPMALIWGIYFAILSFLHIWAVVPCIKSFLIEIQCISRVYSIYVHTFCDPLFEAIGKIFSNIRISTQKEI
Turning to B2, the binding entry in assay [1] is recorded as “no binding”.
